These are yes or no findings as the source states them, for the method shown. Binding seen in cells or lysates may run through a third protein. Some results given as binding are weak or reduced against the parent protein; the word gives no strength. For some assays here: Tags and fused reporters may be left off the sequences shown.
Experiments:
[1] = target: U1-A (human (endogenous in HeLa)) (UniProt P09012); test: co-IP; endogenous proteins from HeLa nuclear extract; antibody against the bait (anti-SmB/B' Y12, anti-U1A or anti-RBM39) on Protein G Dynabeads; TBS-0.05% NP-40, 1.5 h, 4 °C; without nuclease (RNAse inhibitor); western blot
[2] = target: T1, FLAG-RBM39 (human) (UniProt Q14498); test: co-IP; FLAG immunoprecipitation (FLAG-M2 matrix) of FLAG-RBM39 constructs from total extracts of transiently transfected HeLa cells; low-salt buffer with 0.5% Triton-X-100, NaCl adjusted to 150 mM; western blot with anti-SF3A3 and anti-U1-C
T1 sequence: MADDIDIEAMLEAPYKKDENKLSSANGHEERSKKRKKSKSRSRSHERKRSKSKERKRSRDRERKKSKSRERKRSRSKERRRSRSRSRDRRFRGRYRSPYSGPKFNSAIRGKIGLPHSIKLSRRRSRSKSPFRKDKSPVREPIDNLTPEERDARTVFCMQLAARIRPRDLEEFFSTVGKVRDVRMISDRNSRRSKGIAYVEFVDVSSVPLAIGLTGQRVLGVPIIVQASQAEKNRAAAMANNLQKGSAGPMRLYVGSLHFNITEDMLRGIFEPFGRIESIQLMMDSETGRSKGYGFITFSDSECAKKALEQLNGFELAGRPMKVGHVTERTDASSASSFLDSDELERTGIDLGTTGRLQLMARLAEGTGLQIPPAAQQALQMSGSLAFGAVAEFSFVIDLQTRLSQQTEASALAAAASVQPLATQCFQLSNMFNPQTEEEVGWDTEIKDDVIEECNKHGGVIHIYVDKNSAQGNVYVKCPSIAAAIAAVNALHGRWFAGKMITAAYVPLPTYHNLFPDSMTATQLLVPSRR

Amino acid sequences for entries named in this document (tags omitted).
UniProt P09012: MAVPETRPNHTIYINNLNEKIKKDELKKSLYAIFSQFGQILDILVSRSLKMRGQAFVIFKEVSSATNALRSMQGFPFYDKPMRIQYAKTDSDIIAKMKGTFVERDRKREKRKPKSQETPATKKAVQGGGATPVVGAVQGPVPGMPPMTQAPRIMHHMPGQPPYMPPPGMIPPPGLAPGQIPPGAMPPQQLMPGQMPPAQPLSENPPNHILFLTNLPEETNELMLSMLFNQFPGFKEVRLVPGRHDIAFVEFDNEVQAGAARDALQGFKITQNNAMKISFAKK
UniProt P09234: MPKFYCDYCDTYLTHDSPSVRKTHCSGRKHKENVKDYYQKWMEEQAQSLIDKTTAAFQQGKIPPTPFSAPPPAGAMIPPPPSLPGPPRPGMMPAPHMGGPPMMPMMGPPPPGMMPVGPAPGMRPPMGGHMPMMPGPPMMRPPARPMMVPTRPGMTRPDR

- binding [1]: binds
- binding [2]: no binding
Substance: U1-C (from UniProt P09234 1-159)
